From PubChem BioAssay AID2685 (National Center for Advancing Translational Sciences (NCATS), 2010)
The other results are listed elsewhere or left out. Shown are side measurements of this screen, not its main read-out; they come without a call. The list favours compounds with an active or inconclusive main result. Words in brackets tell the shape of the fitted curve; partial curves, single points and poor fits give uncertain potencies.

Experiment: qHTS Assay for Lipid Storage Modulators in Drosophila S3 Cells;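 as to cell number change: cells counted by Cell Tracker Red CMTPX staining in the red channel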
Details: BODIPY lipid droplet fluorescence, 18-24 h; for cell number change: measured here: cell count max response, cells fed with added oleic acid
How it was run: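 Drosophila S3 cells loaded with oleic acid (400 uM, as added) and compounds at several concentrations; lipid droplets imaged by 488-nm laser-scanning cytometry, 500–530 nm intensity and object ratio to cell channel. Percent activity normalized to 20 uM Triacsin C.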

[1] = measured here: cell number channel AC50, cells fed with added oleic acid
[2] = measured here: lipid fluorescence (Fed channel) AC50, cells fed with added oleic acid

SMILES	cell number change [%]	AC50 [1]	AC50 [2]
CCOc1ccc(-n2nc3ccc(NC(=O)c4ccc5c(c4)OCCO5)cc3n2)cc1	-82.3	6510 nM [falling, partial curve]	6510 nM [falling, partial curve]
COc1cccc(-n2c(COc3ccccc3C)nnc2SCC(=O)O)c1	0.105	–	1300 nM [falling, full curve, poor fit]
CC(C)N1C(=O)c2ccccc2C1C(=O)NC1CCCCCC1 (stereo not drawn)	-19.5	–	16400 nM [falling, single point]
CCOc1ccc(/C=N/NC(=O)CC(=O)Nc2ccc(Cl)c(Cl)c2)cc1	-45.1	206 nM [falling, full curve, poor fit]	580 nM [falling, partial curve]
Cc1ccc(NC(=O)c2ccc(OC(F)F)cc2)cc1S(=O)(=O)N(C)C	16.7	651 nM [rising, partial curve, poor fit]	2590 nM [rising, single point]
CCOC(=O)C1=C(c2ccccc2)Nc2ncnn2C1c1cc(OC)cc(OC)c1OC (stereo not drawn)	11.2	–	1640 nM [rising, partial curve]
COC(=O)c1c(NC(=O)CSc2nc3nc(C)cc(C)n3n2)sc(C)c1C	33.3	20600 nM [rising, single point]	4610 nM [rising, partial curve]
CCCCNC(=O)c1ccc(CS(=O)(=O)c2ccc(OC)cc2)o1	4.83	–	51.7 nM [rising, full curve, poor fit]
CN=C1SC(C(=O)Nc2ccccc2Cl)CC(=O)N1c1ccc(OC(F)(F)Cl)cc1 (stereo not drawn)	1.55	–	–
COc1ccccc1C(=O)NNC(=O)c1ccccc1[N+](=O)[O-]	8.5	–	1840 nM [rising, full curve, poor fit]
CCC1(C)OCC(Cn2c3ccccc3c3ccccc32)O1 (stereo not drawn)	-26.9	–	20600 nM [falling, single point]
CC1(c2ccc(Cl)cc2)NC(=O)N(CC(=O)NC(=O)NCc2ccco2)C1=O (stereo not drawn)	-94.3	58 nM [falling, full curve, poor fit]	651 nM [falling, single point]
COc1ccc(NC(=O)CSc2nnc(-c3cccs3)n2-c2ccccc2)cc1	-46.1	13000 nM [falling, partial curve]	20600 nM [falling, single point]
Cc1ncoc1C(=O)N1CCCC(C(=O)c2cccc(C(F)(F)F)c2)C1 (stereo not drawn)	-11.8	–	32600 nM [falling, single point]

Part of the list above in order of heavy-atom count, low to high.
SMILES	cell number change [%]	AC50 [1]	AC50 [2]
CC(C)N1C(=O)c2ccccc2C1C(=O)NC1CCCCCC1 (stereo not drawn)	-19.5	–	16400 nM [falling, single point]
Cc1ccc(NC(=O)c2ccc(OC(F)F)cc2)cc1S(=O)(=O)N(C)C	16.7	651 nM [rising, partial curve, poor fit]	2590 nM [rising, single point]
CN=C1SC(C(=O)Nc2ccccc2Cl)CC(=O)N1c1ccc(OC(F)(F)Cl)cc1 (stereo not drawn)	1.55	–	–
